Source: publication PMC5311907 (Interface Focus, 2017)

Assay: general procedure: Fmoc solid-phase peptide synthesis; Rink amide ChemMatrix; DIC/Oxyma
Conditions: conjugation step

## COX8-Cys-Ac-GTCA-Lys(N3)-NH2
  conjugation yield: 80%
